Experimental findings from publication PMC12225019 are described below.

By UniProt entry, the sequences of proteins in these tests, tags left out.
UniProt P52926: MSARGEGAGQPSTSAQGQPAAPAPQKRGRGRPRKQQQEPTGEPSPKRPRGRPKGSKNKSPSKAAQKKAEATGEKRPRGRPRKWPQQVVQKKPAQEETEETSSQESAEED

These are yes or no findings as the source states them, for the method shown. In cells and extracts the contact can be indirect. A yes stands for co-enrichment or nearness to the bait. Other partners may have been found. For some assays here: Sequences can lack the tags named with a protein.

For assay [1], the target named is T1, Myc-INAVA (innate immunity activator) (human) (UniProt Q3KP66).
T1 sequence: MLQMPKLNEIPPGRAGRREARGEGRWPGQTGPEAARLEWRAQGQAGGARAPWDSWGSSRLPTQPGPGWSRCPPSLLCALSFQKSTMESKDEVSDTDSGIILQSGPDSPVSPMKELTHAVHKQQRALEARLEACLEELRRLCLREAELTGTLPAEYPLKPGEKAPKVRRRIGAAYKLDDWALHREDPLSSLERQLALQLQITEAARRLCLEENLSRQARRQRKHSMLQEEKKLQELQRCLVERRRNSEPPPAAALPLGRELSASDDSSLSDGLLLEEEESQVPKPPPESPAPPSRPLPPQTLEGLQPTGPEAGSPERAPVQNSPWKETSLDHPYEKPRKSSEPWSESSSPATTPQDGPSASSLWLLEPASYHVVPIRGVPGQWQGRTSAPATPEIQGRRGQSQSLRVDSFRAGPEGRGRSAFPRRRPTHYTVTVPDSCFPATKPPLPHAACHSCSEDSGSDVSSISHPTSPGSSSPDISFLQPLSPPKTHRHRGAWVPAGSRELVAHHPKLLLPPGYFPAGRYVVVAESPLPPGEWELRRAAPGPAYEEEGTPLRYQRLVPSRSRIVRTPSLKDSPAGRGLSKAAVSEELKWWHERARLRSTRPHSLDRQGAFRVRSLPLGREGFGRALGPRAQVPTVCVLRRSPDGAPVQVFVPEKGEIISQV
Nature of the assay: affinity purification with mass spectrometry; immunoprecipitation and mass spectrometry to find the target proteins of INAVA in NOF activation; bait, antibody and cells not told in the text shown (Figure S3A).

In assay [2] the target is high mobility group protein A2 (HMGA2) (human (endogenous in NOF#1)) (UniProt P52926). As to the kind of experiment: affinity purification with mass spectrometry; IP-coupled MS analysis in search of the kinase of HMGA2; bait and cells not told in the text shown.

For the molecule “high mobility group protein A2 (HMGA2) (from UniProt P52926 1-109)”, the binding entry in assay [1] is reported as “binds”.

B1: vaccinia‐related kinase 1 (VRK1) (enzyme, UniProt Q99986 1-396)
chain: MPRVKAAQAGRQSSAKRHLAEQFAVGEIITDMAKKEWKVGLPIGQGGFGCIYLADMNSSESVGSDAPCVVKVEPSDNGPLFTELKFYQRAAKPEQIQKWIRTRKLKYLGVPKYWGSGLHDKNGKSYRFMIMDRFGSDLQKIYEANAKRFSRKTVLQLSLRILDILEYIHEHEYVHGDIKASNLLLNYKNPDQVYLVDYGLAYRYCPEGVHKEYKEDPKRCHDGTIEFTSIDAHNGVAPSRRGDLEILGYCMIQWLTGHLPWEDNLKDPKYVRDSKIRYRENIASLMDKCFPEKNKPGEIAKYMETVKLLDYTEKPLYENLRDILLQGLKAIGSKDDGKLDLSVVENGGLKAKTITKKRKKEIEESKEPGVEDTEWSNTQTEEAIQTRSRTRKRVQK
Regarding B1, the binding entry in assay [2] was “binds”.
